Test systems include MZ2-MEL; MeWo; RPMI7951; RVH-421; SkMel28; SkMel2; SkMel30; SkMel5; UACC257; UACC62.
What all share (experiment): cleaved PARP positive nuclei fraction relative to DMSO control; melanoma cells; higher = more apoptosis
Common to all, as to conditions: library dose: low library concentration; 72 h

Structures are written as SMILES. The list shows a part of the results. Single values are uncertain, as repeats are few or missing.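 Cells were imaged in 1,536-well plates, and nuclei stained with an antibody against cleaved PARP were counted against all DNA-stained nuclei to give the apoptosis fraction. Screening doses were chosen to leave most cells alive, and resting and induced cleaved-PARP levels differ strongly between cell lines.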

As to `CCCCCCCCc1ccc(CCC(N)(CO)CO)cc1` [fingolimod] + O=C(O)C(=O)Nc1sc2c(c1C(=O)O)CCNC2 [TCS401] (first compound 2 µM, partner dose 1.66667 µM), the “cleaved PARP positive nuclei fraction” value was determined as 37.8% in the test with MZ2-MEL; 126% in the test with MeWo; 147% with RPMI7951; 144% with RVH-421; 229% in the test with SkMel28; 48.8% in the test with SkMel2. Further, the “cleaved PARP positive nuclei fraction” value worked out at 29.2% in the test on SkMel30, 92.9% in the test on SkMel5, 62.8% in the test on UACC257 and 152% in the test with UACC62.

On to `C[C@]1(O)C[C@@H](c2nc(-c3ccc4ccc(-c5ccccc5)nc4c3)c3c(N)nccn32)C1` + COc1cc(Nc2ncc(F)c(Nc3ccc4c(n3)NC(=O)C(C)(C)O4)n2)cc(OC)c1OC [Tamatinib] (first compound 0.4 µM, partner dose 0.4 µM), for which the “cleaved PARP positive nuclei fraction” value was determined as 198% with MZ2-MEL; 62.4% in the test on MeWo; 54.6% with RPMI7951; 33.2% in the test with RVH-421; 161% with SkMel28; 179% in the test with SkMel2. Also, the “cleaved PARP positive nuclei fraction” value was determined as 185% with SkMel30, 48.2% in the test on SkMel5, 472% in the test on UACC257 and 124% in the test with UACC62.

For `CCN(CC)CCNC(=O)c1c(C)[nH]c(/C=C2\C(=O)Nc3ccc(F)cc32)c1C` [sunitinib] + COc1cc2ncnc(Nc3ccc(Oc4ccccc4)cc3)c2cc1OC [SrcI1] (first compound 0.4 µM, partner dose 2 µM), the “cleaved PARP positive nuclei fraction” value in the test with MZ2-MEL was 94.7%; with MeWo, 183%; in the test with RPMI7951 it was 96.9%; with RVH-421, 71.4%; with SkMel28, 134%; in the test on SkMel2 it was 90.4%. Also, the “cleaved PARP positive nuclei fraction” value in the test on SkMel30 worked out at 46.1%; in the test with SkMel5, 116%; in the test with UACC257 it was 221%; in the test with UACC62, 109%.

As for `COc1ccc(C2=N[C@@H](c3ccc(Cl)cc3)[C@@H](c3ccc(Cl)cc3)N2C(=O)N2CCNC(=O)C2)c(OC(C)C)c1` [Nutlin-3] + O=c1cc(-c2cccc3c2Sc2ccccc2S3)oc(N2CCOCC2)c1 [KU55933] (first compound 0.1 µM, partner dose 1 µM), the “cleaved PARP positive nuclei fraction” value was determined as 81.8% in the test on MZ2-MEL; 205% in the test with MeWo; 60.6% in the test on RPMI7951; 122% in the test with RVH-421; 145% in the test with SkMel28; 71.1% with SkMel2. Further, the “cleaved PARP positive nuclei fraction” value turned out to be 25% in the test on SkMel30, 233% in the test on SkMel5, 185% with UACC257 and 131% in the test with UACC62.

Values taken from the supplement of paper PMC4604168 (melanoma cell lines).
